# Assay results as given in the supplement of paper PMC11732987, “Enantioselective OTUD7B fragment discovery through chemoproteomics screening and high-throughput optimisation” (Communications Chemistry, 2025).
# Protein sequences, listed by entry. Tags and fused reporters are not part of them. Lines headed by an entry give the natural chain unless they say otherwise; changes in a name come on top. Residues count along the entry.
# UniProt Q96AP4: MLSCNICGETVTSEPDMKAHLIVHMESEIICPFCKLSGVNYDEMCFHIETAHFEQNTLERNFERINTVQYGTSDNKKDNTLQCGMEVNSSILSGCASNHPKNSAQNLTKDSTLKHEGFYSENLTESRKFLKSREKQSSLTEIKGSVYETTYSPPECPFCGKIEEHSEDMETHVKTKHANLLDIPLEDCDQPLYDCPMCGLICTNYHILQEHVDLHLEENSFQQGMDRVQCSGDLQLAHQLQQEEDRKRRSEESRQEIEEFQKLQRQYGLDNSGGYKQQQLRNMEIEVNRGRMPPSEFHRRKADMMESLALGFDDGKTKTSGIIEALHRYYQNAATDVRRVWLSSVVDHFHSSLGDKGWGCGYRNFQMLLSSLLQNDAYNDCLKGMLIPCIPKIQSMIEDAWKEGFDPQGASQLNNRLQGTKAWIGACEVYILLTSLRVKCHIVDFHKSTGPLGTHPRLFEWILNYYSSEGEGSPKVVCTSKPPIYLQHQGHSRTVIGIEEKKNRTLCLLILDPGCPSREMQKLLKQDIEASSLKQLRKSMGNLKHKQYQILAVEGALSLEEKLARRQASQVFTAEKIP
# UniProt Q96KM6: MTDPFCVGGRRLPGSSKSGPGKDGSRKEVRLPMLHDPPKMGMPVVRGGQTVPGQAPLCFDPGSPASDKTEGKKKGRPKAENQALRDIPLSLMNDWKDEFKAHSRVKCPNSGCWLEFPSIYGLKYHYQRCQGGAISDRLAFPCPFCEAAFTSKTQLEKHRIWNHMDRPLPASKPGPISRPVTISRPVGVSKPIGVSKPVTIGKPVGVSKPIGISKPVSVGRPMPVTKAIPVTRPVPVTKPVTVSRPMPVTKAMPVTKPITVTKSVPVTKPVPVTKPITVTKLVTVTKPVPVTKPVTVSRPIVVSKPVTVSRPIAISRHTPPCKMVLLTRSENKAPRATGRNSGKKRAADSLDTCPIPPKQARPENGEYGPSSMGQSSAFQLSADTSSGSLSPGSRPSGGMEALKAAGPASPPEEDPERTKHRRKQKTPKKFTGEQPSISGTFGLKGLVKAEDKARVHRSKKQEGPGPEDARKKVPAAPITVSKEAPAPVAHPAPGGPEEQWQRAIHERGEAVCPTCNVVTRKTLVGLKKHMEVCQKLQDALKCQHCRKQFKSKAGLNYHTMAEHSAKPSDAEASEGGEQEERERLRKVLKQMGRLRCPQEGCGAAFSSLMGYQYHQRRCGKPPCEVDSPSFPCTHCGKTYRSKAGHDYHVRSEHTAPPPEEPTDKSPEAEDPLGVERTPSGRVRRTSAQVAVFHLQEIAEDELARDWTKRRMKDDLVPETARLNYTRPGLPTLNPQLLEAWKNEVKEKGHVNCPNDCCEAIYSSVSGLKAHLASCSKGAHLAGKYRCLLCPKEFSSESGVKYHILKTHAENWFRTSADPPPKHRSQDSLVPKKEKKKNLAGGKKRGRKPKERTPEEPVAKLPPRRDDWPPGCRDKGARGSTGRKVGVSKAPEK
# UniProt Q9H582, 193-213: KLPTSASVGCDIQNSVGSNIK
# UniProt A7E2V4: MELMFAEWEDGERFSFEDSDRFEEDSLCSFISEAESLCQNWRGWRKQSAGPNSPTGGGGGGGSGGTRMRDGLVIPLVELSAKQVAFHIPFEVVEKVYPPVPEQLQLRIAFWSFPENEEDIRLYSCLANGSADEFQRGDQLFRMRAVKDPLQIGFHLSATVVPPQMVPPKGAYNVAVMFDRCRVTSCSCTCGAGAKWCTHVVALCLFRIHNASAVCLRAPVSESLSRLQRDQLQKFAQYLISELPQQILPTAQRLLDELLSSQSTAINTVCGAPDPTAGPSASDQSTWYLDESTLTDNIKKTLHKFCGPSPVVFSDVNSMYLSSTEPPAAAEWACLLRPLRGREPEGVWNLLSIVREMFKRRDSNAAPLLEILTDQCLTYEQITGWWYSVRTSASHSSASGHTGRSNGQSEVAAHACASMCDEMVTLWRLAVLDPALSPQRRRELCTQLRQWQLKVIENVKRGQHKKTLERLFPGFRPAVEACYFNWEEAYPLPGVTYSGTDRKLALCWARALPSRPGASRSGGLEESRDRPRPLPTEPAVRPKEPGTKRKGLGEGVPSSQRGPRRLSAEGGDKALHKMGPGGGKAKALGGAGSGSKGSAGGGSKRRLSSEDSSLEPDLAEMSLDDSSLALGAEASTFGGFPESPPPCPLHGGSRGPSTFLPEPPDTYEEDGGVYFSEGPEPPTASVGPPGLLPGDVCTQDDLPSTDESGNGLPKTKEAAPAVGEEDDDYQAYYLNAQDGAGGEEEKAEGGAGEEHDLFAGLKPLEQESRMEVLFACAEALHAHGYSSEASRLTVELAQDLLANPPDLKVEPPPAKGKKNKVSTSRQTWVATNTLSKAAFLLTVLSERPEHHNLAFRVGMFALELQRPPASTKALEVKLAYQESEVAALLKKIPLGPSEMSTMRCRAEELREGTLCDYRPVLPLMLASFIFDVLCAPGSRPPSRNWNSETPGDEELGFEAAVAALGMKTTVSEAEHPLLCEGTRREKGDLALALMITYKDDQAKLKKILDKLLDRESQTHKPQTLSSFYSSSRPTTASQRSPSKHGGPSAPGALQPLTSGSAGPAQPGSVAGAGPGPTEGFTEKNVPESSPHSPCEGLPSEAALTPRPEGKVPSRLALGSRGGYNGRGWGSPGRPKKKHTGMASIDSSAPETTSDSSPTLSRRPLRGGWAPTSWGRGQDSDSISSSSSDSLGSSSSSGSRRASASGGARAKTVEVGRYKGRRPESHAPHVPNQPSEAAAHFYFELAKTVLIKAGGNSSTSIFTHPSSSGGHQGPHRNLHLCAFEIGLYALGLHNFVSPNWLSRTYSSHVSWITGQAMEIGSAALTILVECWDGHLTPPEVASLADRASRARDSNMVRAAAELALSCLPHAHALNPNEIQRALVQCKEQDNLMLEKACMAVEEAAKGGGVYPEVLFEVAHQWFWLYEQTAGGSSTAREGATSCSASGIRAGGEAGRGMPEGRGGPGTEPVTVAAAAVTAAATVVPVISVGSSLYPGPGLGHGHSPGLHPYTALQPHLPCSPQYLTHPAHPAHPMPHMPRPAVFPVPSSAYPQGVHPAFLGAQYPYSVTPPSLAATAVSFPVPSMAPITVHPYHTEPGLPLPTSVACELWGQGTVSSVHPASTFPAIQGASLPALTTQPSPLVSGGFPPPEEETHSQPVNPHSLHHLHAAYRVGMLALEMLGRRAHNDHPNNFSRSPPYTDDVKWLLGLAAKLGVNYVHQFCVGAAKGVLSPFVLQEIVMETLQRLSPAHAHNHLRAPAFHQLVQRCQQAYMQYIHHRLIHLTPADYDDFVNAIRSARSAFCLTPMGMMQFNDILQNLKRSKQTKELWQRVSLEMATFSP
# UniProt O76080: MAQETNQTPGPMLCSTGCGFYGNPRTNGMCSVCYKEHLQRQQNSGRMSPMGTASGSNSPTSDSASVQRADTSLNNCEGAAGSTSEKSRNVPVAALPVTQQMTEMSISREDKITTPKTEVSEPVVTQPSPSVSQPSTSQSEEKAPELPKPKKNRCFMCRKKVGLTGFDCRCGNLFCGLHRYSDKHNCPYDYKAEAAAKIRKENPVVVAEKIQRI
# UniProt Q9H2Y7: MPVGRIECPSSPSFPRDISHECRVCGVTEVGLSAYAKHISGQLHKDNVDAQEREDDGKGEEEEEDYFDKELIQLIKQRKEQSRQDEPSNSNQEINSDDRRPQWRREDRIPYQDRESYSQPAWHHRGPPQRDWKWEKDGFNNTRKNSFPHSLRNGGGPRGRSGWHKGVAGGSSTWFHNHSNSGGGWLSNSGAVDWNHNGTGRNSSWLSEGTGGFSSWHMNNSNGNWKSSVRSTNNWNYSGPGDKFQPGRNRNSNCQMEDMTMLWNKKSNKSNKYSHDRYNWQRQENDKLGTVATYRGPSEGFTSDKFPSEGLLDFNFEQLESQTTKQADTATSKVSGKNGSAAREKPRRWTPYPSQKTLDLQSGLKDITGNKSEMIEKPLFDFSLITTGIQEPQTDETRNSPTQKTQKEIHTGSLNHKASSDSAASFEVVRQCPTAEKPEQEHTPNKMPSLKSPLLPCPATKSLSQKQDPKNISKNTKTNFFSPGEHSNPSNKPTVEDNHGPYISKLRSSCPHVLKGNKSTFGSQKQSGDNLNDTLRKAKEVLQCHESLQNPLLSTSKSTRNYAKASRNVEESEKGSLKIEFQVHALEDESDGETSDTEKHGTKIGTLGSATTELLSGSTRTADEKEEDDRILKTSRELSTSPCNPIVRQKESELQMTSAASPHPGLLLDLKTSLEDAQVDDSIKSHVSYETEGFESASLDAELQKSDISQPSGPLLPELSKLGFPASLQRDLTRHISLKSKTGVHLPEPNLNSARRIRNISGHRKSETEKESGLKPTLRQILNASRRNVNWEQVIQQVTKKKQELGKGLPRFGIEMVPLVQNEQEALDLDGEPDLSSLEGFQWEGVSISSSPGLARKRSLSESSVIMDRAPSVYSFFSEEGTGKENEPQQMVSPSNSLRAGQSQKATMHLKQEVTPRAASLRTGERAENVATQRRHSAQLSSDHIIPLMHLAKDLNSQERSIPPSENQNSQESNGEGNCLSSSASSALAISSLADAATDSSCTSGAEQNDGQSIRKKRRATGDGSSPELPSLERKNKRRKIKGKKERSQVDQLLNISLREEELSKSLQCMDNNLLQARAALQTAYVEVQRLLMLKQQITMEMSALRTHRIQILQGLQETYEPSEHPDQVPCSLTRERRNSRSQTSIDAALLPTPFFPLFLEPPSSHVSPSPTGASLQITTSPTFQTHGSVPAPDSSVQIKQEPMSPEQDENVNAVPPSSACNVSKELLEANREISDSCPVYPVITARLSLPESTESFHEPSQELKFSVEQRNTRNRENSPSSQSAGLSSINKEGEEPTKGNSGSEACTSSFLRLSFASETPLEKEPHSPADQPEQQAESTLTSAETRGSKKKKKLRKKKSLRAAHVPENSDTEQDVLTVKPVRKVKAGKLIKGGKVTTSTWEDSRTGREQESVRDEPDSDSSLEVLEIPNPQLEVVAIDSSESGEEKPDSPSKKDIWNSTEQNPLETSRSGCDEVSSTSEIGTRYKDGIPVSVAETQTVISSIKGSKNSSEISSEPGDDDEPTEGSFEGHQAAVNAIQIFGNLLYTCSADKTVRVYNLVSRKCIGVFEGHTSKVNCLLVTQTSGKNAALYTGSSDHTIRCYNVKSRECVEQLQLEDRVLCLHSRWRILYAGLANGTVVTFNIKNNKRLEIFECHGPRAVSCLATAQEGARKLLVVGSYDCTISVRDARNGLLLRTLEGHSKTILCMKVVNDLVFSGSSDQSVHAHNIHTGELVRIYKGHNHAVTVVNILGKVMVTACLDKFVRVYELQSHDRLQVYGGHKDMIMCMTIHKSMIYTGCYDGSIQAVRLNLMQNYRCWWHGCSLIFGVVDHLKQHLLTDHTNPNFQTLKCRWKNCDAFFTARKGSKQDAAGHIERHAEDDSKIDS
# UniProt Q96JP5: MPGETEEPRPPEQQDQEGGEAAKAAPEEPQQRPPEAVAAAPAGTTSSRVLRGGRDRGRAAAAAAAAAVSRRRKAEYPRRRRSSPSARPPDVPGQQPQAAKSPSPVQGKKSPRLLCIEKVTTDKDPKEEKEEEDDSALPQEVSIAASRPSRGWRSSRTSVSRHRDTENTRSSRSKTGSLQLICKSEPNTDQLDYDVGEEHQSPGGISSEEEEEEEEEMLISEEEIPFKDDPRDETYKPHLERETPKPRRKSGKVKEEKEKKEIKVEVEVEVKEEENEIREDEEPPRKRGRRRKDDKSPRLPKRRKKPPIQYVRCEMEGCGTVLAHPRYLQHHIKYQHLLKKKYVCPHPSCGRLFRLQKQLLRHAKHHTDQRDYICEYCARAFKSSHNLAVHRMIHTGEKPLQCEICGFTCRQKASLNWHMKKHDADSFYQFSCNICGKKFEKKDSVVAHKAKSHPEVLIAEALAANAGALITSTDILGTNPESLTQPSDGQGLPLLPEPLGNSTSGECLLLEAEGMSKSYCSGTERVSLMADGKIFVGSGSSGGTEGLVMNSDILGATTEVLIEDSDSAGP
# UniProt O95159: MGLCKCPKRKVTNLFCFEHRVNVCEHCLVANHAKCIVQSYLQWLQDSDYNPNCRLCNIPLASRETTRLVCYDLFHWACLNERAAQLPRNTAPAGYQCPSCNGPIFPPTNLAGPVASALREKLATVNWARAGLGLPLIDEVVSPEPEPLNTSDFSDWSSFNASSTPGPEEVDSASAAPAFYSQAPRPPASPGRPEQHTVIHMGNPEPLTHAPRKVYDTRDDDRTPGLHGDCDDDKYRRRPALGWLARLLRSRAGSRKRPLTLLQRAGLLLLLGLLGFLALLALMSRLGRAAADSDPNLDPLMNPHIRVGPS
# UniProt Q9ULU4, 1061-1084: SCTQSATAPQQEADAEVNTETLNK
# The other results are listed elsewhere or left out. The data scatter; read single values as rough.
# Compound: ClCC(=O)N[C@H]1CCCc2ccccc12
# Experiment: log2 mean competition ratio of IA-DTB cysteine labelling (DMSO/compound) (log2 ratio); higher = stronger cysteine engagement by compound
# Details: 50 µM; treatment time: 4 h; cell line lysate: HEK293T
# Experimental: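 IA-DTB competitive cysteine chemoproteomics in HEK293T RIPA lysate. Lysates were treated with compound 29 or 30 at 50 or 200 µM for 4 h, then IA-DTB (500 µM, 1 h), trypsin-digested, NeutrAvidin-enriched and analysed by diaPASEF. Competition ratio = intensity DMSO / intensity compound (n=4 treated, n=64 DMSO); binding: mean log2 CR ≥ 1 and p ≤ 0.05 plus QC filters. Target is the cysteine site.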
row,Target,log2 mean competition ratio
1,ZNF292 C215 (UniProt O60281),-0.558
2,ZUP1 C360 (UniProt Q96AP4),-0.185
3,ZYX C387 (UniProt Q15942),0.414
4,ZNF512B C533 (UniProt Q96KM6),-0.27
5,ZNF791 C311,-0.266
6,ZNF644 C202 (UniProt Q9H582),-0.269
7,ZNF827 C485,0.0836
8,ZNF217 C641 (UniProt O75362),-0.118
9,ZNF777 C602,-0.207
10,ZDBF2 C162,0.143
11,ZSWIM8 C979 (UniProt A7E2V4),-0.29
12,ZFAND5 C76 (UniProt O76080),-0.206
13,ZNF106 C457 (UniProt Q9H2Y7),0.122
14,ZNF644 C62 (UniProt Q9H582),0.017
15,ZUP1 C230 (UniProt Q96AP4),-0.362
16,ZFP91 C182 (UniProt Q96JP5),0.167
17,ZNF512B C129 (UniProt Q96KM6),0.0952
18,ZFPL1 C56 (UniProt O95159),0.235
19,ZNF687 C339 (UniProt Q8N1G0),0.0471
20,ZMYND8 C1062 (UniProt Q9ULU4),0.13
21,ZNF609 C944 (UniProt O15014),-0.226

# Same assay, conditions: 200 µM; treatment time: 4 h; cell line lysate: HEK293T
row,Target,log2 mean competition ratio
1,ZNF292 C215 (UniProt O60281),-0.171
2,ZUP1 C360 (UniProt Q96AP4),-0.166
3,ZYX C387 (UniProt Q15942),-0.345
4,ZNF512B C533 (UniProt Q96KM6),-0.199
5,ZNF644 C202 (UniProt Q9H582),0.272
6,ZNF827 C485,0.0267
7,ZNF217 C641 (UniProt O75362),0.0716
8,ZNF777 C602,-0.0996
9,ZDBF2 C162,0.126
10,ZSWIM8 C979 (UniProt A7E2V4),-0.185
11,ZFAND5 C76 (UniProt O76080),-0.0152
12,ZNF106 C457 (UniProt Q9H2Y7),-0.00951
13,ZNF644 C62 (UniProt Q9H582),0.147
14,ZUP1 C230 (UniProt Q96AP4),-0.0955
15,ZFP91 C182 (UniProt Q96JP5),0.172
16,ZNF512B C129 (UniProt Q96KM6),-0.2
17,ZFPL1 C56 (UniProt O95159),0.0652
18,ZNF687 C339 (UniProt Q8N1G0),-0.00403
19,ZMYND8 C1062 (UniProt Q9ULU4),-0.251
20,ZNF609 C944 (UniProt O15014),-0.214
